Data taken from ChEMBL document CHEMBL3988442, “University of Dundee, Small-Polar-MMV Screening Library” (2021).

Chains of the proteins cited; added tags and fusions are not shown.
UniProt E9BF75, entry or part of it: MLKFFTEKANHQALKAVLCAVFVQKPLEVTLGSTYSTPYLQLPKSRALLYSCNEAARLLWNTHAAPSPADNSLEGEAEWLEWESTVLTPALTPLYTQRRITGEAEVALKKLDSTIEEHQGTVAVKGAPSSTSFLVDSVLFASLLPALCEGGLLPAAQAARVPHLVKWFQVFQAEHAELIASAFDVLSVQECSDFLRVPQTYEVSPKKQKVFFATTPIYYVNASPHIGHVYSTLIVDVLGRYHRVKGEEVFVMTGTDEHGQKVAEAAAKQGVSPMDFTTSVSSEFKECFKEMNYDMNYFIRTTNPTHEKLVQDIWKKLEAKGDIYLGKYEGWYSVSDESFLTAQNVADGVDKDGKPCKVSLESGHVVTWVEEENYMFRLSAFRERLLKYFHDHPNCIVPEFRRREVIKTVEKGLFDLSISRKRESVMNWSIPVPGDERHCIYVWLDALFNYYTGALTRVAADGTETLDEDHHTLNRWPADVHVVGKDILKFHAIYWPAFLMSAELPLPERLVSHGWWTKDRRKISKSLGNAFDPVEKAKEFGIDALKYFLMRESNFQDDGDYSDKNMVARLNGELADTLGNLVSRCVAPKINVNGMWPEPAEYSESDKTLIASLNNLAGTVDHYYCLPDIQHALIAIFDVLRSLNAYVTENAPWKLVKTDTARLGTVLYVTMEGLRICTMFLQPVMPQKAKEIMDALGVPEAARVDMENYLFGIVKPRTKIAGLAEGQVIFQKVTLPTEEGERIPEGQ

All values are in %. How 0% and 100% were set is not recorded. Most values in the screen are low, and negative values occur. This is an unselected part of the compounds tested. A dash means the value is not listed here; it may have been measured.

A: 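Primary screen of methionyl-tRNA synthetase; the read-out is not stated. Target: Methionyl-tRNA synthetase (putative), Leishmania donovani (UniProt E9BF75). The test concentration is not given. Values are per cent inhibition. About 68,000 compounds were tested under these conditions; 0.035% (about 24) showed 50% or more at least once.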
B: 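Assay on Mycobacterium tuberculosis, filed only as a heat shock assay from Cornell; the read-out is not stated. The concentration is filed as 10 mM, unlikely as a test dose, so the dose is not known. Direction is inferred from retests: higher values go with stronger inhibition. About 69,000 compounds were tested under these conditions; 1.4% (about 930) showed 50% or more at least once.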

| SMILES | A | B |
|---|---|---|
| `FC(F)(F)c1nc(C2CCNCC2)no1` | 10.47% | - |
| `CS(=O)(=O)Cc1ccc(C(=O)NCc2ccc(Cl)cc2Cl)cc1` | 5.152% | -11.13% |
| `CCNc1cc2c(nn1)CCN(C(=O)C1Cc3ccccc3S1)C2` (stereo not given) | 14.34% | -12.19% |
| `CC(C)(NCC(=O)NC(=O)NC1CC1)c1ccc2c(c1)OCO2` | 16.11% | -18.01% |
| `CCC(CNC(=O)c1ccc(C(N)=O)cc1)Oc1cccc(F)c1` (stereo not given) | 11.87% | 1.592% |
| `COc1cc(NC(=O)N2CCCC2c2nncn2C)ccc1Br` (stereo not given) | 20.91% | -3.963% |
| `CN1CCCn2c(nc(CNS(=O)(=O)C3CC3)cc2=O)C1.O=C(O)C(F)(F)F` | - | 4.181% |
| `COc1ccc(CN2CCC3(CCN(c4cccnc4)C3=O)C2)cc1` (stereo not given) | 8.889% | - |
| `Cc1cnn(CCCn2ncc(N3CCC(CN)C3)cc2=O)c1` (stereo not given) | -1.362% | 3.385% |
| `CC1c2ncc(CN3CCN(C)CC3)n2CCN1Cc1ccsc1` (stereo not given) | 19.29% | - |
| `O=C(CN1CCCCC1Cn1cccn1)NC1CCN(C2CC2)CC1` (stereo not given) | 14.13% | -8.987% |
| `Cc1nnc(Cn2cc(I)cc(C)c2=O)o1` | 13.77% | 5.017% |
| `CN1C(=O)c2ccc(NC(=O)CSc3ccc4c(c3)CCC4)cc2C1=O` | 10.44% | -28.84% |
| `CSCCC(O)C(=O)N(C)Cc1cnn(-c2ccc(F)cc2)c1` (stereo not given) | 6.87% | 10.62% |
| `O=C(c1ccn(-c2cccc(Cl)c2)n1)N1CCN(CCO)CC1` | 16.87% | -0.9941% |
| `[H][C@@]12CCN(C(=O)c3ccsc3)C[C@@]1([H])O[C@H](c1noc(C)n1)C2` | - | 3.986% |
| `Cc1ncsc1C(=O)N[C@@H](Cc1ccccc1)C(N)=O` | 4.878% | -5.053% |
| `Cc1ccsc1C(=O)N1CC[C@@H](N(C)C)[C@@H]1Cc1cnn(C)c1` | 7.96% | - |
| `Cc1ccc(CNC(=O)NCC(=O)NC(C)(C)C)c(N2CCCC2)c1` | 8.333% | -8.22% |
| `CC(C)NC(=O)C1CCC2(CCNCC2)C1` (stereo not given) | 13.89% | 4.514% |
| `CN1CC(C(=O)NCc2cccnc2OCC(F)(F)F)CC1=O` (stereo not given) | 19.29% | -6.515% |
| `Cc1cc(O)cc(=O)n1CCCC(=O)Nc1n[nH]c2ccccc12` | 18.7% | -2.288% |
| `Cc1ccc(CN2CCC3(CCC(=O)N3CC(=O)N(C)C)CC2)s1` | 15.06% | - |
| `O=C(NC1CC(=O)N(C2Cc3ccccc3C2)C1)c1cnccn1` (stereo not given) | 14.81% | 5.722% |
| `CCC(CC)CN1CCCn2nc(CNC(=O)COC)cc2C1` | 9.589% | -0.6435% |
| `Cc1cccc(N2CCN(Cc3nc(CC4CC4)no3)CC2)n1` | 15.38% | -1.852% |
| `I.c1cc2c(cc1C1(CNC3=NCCN3)CCCC1)OCCO2` | - | -5.173% |
| `Cc1cc(N2CCCC2c2cncc(N(C)C)n2)ncn1` (stereo not given) | 7.12% | -5.915% |
| `c1ccc(-c2nnn3c2COC(CNCc2ccccn2)C3)cc1` (stereo not given) | 9.343% | 6.563% |
| `CC1CCC(O)(Cn2ncnc2-c2cccc(C#N)c2)CC1` (stereo not given) | 15.53% | 8.7% |
| `Cc1cc(C(=O)Nc2ccc3c(c2)N(C)CCN(C)C3)on1` | 15.19% | -9.04% |
| `Cn1cc(CN2CC[C@@H]3[C@H]2CCC(=O)N3c2ccccc2)cn1` | 8.493% | - |
| `CC(C)(C(=O)NCC(N)=O)c1ccccc1F` | 16.81% | 8.109% |
| `O=C(c1cccs1)N1CC[C@@H]2CN(C3CCOCC3)CCO[C@@H]2C1` | 13.49% | - |
| `CC(C)CN1C[C@@H]2CN(C(=O)c3cccn3C)C[C@@H]2C1=O` | 14.01% | - |
| `Cc1cc(C)n(CC2CCCN2CCS(=O)(=O)c2ccccc2)n1` (stereo not given) | 5.521% | 25.73% |
| `CC(=O)c1c(C)nn(S(=O)(=O)c2ccc(Cl)cc2)c1C` | 2.21% | -6.257% |
| `COc1ccc(CN(C)C(=O)CN2CC(n3cc(C)cn3)C2)cc1F` | 16.48% | 19.09% |
| `COC(=O)C(C)CN(Cc1ccccc1)C(=O)CN1CCCNC1=O` (stereo not given) | - | -2.067% |
| `Cc1cccc(CS(=O)(=O)NCc2nn(C)c3c2CCCC3)c1` | 10.79% | 5.588% |
| `CCS(=O)(=O)N(C)C1CCN(Cn2ccc(-c3ccc(F)cc3)n2)CC1` | 10.48% | -0.683% |
| `CC(Cn1cccn1)C(=O)N1CCC(Nc2cccnn2)CC1` (stereo not given) | 8.014% | -8.487% |
| `Fc1cccc(Cl)c1CNCCOc1ccccn1` | 16.25% | -12.87% |
| `c1cncc(CNCCc2cccs2)c1` | -0.8475% | -30.55% |
| `Cc1cc(-c2nccs2)nc(C2CCN(Cc3ccncc3)CC2)n1` | 14.29% | - |
| `CC(C)c1nc(N2CC(N3CCCCC3C)C2)c2cnn(C)c2n1` (stereo not given) | 4.5% | -26.52% |
| `CCCn1cc(-c2ccnc(NC3CCCc4ccccc43)n2)c(C)n1` (stereo not given) | 32.64% | 98% |
| `C[C@H]1CN(Cc2cnn(C)c2)C[C@@]12CCN(Cc1cccnc1)C2=O` | 12.46% | -30.42% |
| `CCC[C@@H]1CN(Cc2ccc(N(C)C)nc2)C[C@H]1N(C)C` | 10.1% | -17.8% |
| `Cc1nc(C)c(C(=O)N2Cc3cc(F)ccc3CC2C)o1` (stereo not given) | 7.888% | 8.79% |
| `O=C(O)C(F)(F)F.[H][C@]12CCN(C(=O)Cc3cccc(OC)c3)CC[C@@]1([H])S(=O)(=O)CCN2C` | - | 5.677% |
| `Cc1c(CN2CCCC2c2cncc(CN3CCCC3)n2)cnn1C` (stereo not given) | 12.26% | -8.207% |
| `[H][C@@]12C[C@H](c3nnc(C)o3)O[C@@]1([H])CCN(C(=O)Cc1ccc(F)cc1)C2` | - | 0.747% |
| `Cc1sc(Br)cc1S(=O)(=O)NCCCN` | 11.94% | - |
| `Cc1[nH]ncc1CCCNC(=O)Nc1ccc(F)cc1` | 5.435% | -13.62% |
| `CC(Cc1cccc(Cl)c1)NC(=O)Nc1cnn(CC(N)=O)c1` (stereo not given) | 24.36% | 7.556% |
| `Cc1cccc2[nH]c(-c3cn(C4CCNCC4)nn3)nc12` | 15.32% | -5.812% |

4 of the entries, repeated:

- CCC[C@@H]1CN(Cc2ccc(N(C)C)nc2)C[C@H]1N(C)C : A: 10.1%; B: -17.8%
- O=C(CN1CCCCC1Cn1cccn1)NC1CCN(C2CC2)CC1 (stereo not given) : A: 14.13%; B: -8.987%
- Cc1cc(O)cc(=O)n1CCCC(=O)Nc1n[nH]c2ccccc12 : A: 18.7%; B: -2.288%
- Cc1cccc(CS(=O)(=O)NCc2nn(C)c3c2CCCC3)c1 : A: 10.79%; B: 5.588%